Experimental data taken from PubChem BioAssay AID1347072 (National Center for Advancing Translational Sciences (NCATS), 2019).
The whole screen tested about 44,000 compounds, of which fewer than 10 were called active. The shares of active, inactive and inconclusive entries below differ from those in the screen. Calls come from the whole dose curve; as a rule, active = well fitted curve in the direction sought with a large enough effect; inconclusive = small, poorly fitted or top-dose-only effect, or another doubt; inactive = no such curve, though single readings can be large or run the other way. A potency beside an inconclusive call is a rough fit, not a confirmed value.

The chains behind the UniProt entries cited, without tags or fusion partners. Where a name states a change or a piece, a line headed by the entry shows the natural chain unless it says otherwise.
UniProt P51570: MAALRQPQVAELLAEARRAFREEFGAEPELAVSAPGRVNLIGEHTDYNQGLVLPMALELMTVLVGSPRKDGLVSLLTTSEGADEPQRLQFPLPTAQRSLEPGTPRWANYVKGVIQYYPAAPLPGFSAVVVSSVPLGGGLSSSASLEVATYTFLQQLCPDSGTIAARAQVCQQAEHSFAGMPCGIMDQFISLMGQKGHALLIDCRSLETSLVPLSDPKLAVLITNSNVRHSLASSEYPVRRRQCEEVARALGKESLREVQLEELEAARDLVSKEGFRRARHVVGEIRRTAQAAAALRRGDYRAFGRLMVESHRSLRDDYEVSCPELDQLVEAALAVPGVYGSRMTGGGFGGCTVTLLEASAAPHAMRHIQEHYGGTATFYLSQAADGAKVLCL

Molecular target: Galactokinase (Homo sapiens) (UniProt P51570)
Assay: qHTS Assay for Inhibitors of Human Galactokinase (GALK): NCGC Sytravon Library Screen;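 for activity, negative = inhibition: plate controls were full GALK reaction for no effect and reaction lacking GALK for full effect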
Conditions: recombinant GALK, Kinase-Glo ATP luminescence, 1 h; series mostly up to 57.5 µM; activity, negative = inhibition: at the top concentration
Outline: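 5 nM GALK; 35 uM ATP; 100 uM D-galactose; 20 mM HEPES pH 8.0, 5 mM MgCl2, 60 mM NaCl, 1 mM DTT, 0.01% BSA; 1 h RT; Kinase-Glo Plus luminescence.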

Row | SMILES | Potency | activity, negative = inhibition
1 | Cc1cc(C)c(NC(=O)c2sc3nc(C)cc(C)c3c2N)c(C)c1 | inconclusive: 7.08 µM [inhibitor, partial curve, poor fit] | 
2 | COC(=O)c1ccc(NC(=O)c2c(-c3ccccc3)c(-c3ccccc3)nn(C)c2=O)cc1 | inconclusive: 39.8 µM [inhibitor, partial curve, poor fit] | 
3 | COc1ccc(-c2[nH]c(-c3ccc(C)cc3)nc2SCC(=O)NCC2CCCO2)cc1 (stereo not given) | inconclusive: 0.708 µM [inhibitor, full curve, poor fit] | 
4 | COc1cccc(C(=O)NCc2cn3cccc(C)c3n2)c1 | inconclusive: 6.31 µM [inhibitor, full curve, poor fit] | 
5 | CCCn1c(=N)c(C(=O)NC(C)c2ccccc2)cc2c(=O)n3ccccc3nc21 (stereo not given) | inconclusive: 0.251 µM [inhibitor, full curve, poor fit] | 
6 | CCOc1cccc(C(=O)Nc2ccc3oc(-c4ccncc4)nc3c2)c1 |  | inactive: 1.16%
7 | CC(C)(C)c1ccc(S(=O)(=O)c2cnc(SCC(=O)Nc3ccc4c(c3)OCCO4)[nH]c2=O)cc1 | inconclusive: 20 µM [inhibitor, partial curve, poor fit] | 
8 | CCOc1ccc(S(=O)(=O)NCc2ccc3c(c2)CCN3C(=O)c2ccc(C)cc2)cc1 | inconclusive: 35.5 µM [inhibitor, partial curve, poor fit] | 
9 | Cc1ccc(N2C(=O)c3n[nH]c(C)c3C2c2ccccc2Cl)cc1 (stereo not given) | inconclusive: 17.8 µM [inhibitor, partial curve, poor fit] | 
10 | CCc1cccc(NC(=O)CSc2nnc(-c3cc4occc4n3C)n2-c2ccccc2C)c1 | inconclusive: 1.26 µM [inhibitor, full curve, poor fit] | 
11 | CC(=O)c1ccc(NC(=O)CSc2cn(CC(=O)N(C(C)C)C(C)C)c3ccccc23)cc1 | inconclusive: 2 µM [inhibitor, full curve, poor fit] | 
12 | CCc1ccc(NC(=O)C2CCCN(S(=O)(=O)c3ccc(F)cc3)C2)cc1 (stereo not given) | inconclusive: 39.8 µM [inhibitor, partial curve, poor fit] | 
13 | CCc1ccc(-n2nnc(-c3nc(-c4ccc(C)cc4)no3)c2N)cc1 | inconclusive: 39.8 µM [inhibitor, partial curve, poor fit] | 
14 | Cc1cccc(C)c1NC(=O)CSCc1cnn(-c2ccccc2)c1-n1cccc1 | inconclusive: 1 µM [inhibitor, full curve, poor fit] | 
15 | O=C(NCC(c1cccnc1)N1CCc2ccccc2C1)C(=O)Nc1ccccc1 (stereo not given) | inconclusive: 7.08 µM [inhibitor, partial curve, poor fit] | 

Three compounds from above, sorted by molecular weight, high to low:
Row | SMILES | Potency | activity, negative = inhibition
10 | CCc1cccc(NC(=O)CSc2nnc(-c3cc4occc4n3C)n2-c2ccccc2C)c1 | inconclusive: 1.26 µM [inhibitor, full curve, poor fit] | 
8 | CCOc1ccc(S(=O)(=O)NCc2ccc3c(c2)CCN3C(=O)c2ccc(C)cc2)cc1 | inconclusive: 35.5 µM [inhibitor, partial curve, poor fit] | 
3 | COc1ccc(-c2[nH]c(-c3ccc(C)cc3)nc2SCC(=O)NCC2CCCO2)cc1 (stereo not given) | inconclusive: 0.708 µM [inhibitor, full curve, poor fit] | 
